# Reference: PMC6895612
# The chains behind the UniProt entries cited, without tags or fusion partners.
# UniProt Q01844: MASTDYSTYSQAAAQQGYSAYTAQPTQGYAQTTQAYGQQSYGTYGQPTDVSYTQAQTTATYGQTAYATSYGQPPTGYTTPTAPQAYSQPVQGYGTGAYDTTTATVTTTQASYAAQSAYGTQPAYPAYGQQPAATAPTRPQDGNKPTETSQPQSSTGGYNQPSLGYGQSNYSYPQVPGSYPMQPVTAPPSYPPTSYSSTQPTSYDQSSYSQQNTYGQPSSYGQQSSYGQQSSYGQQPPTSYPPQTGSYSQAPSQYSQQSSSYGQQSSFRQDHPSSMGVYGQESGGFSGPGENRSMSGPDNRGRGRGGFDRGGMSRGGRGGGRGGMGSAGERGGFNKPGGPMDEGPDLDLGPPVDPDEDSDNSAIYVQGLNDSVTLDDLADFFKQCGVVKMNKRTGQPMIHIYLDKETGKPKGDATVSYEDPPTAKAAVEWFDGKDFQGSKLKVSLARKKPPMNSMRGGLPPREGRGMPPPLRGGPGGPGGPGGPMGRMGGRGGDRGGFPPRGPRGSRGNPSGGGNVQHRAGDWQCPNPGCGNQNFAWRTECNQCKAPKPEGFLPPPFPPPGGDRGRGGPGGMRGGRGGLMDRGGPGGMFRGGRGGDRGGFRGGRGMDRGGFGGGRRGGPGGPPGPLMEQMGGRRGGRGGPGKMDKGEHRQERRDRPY
# Results are given in words; binding and its absence hold for the method and conditions named. In cells and extracts the contact can be indirect. Some binding calls cover weakened binding; strength is not graded here. For some of these results: Tags and fused reporters may be left off the sequences shown.
# Key:
# [1] = target: T1, MAZ in BiFC vector pBiFC-VC155 (human) (UniProt P56270); assay: split reporter; BiFC: EWSR1 and MAZ cDNAs in pBiFC-VN173 and pBiFC-VC155, co-transfected into IMR32 and SH-SY5Y cells for 24 h, confocal microscopy; cells stably transfected with circ-CUX1 or sh-circ-CUX1
# T1 sequence: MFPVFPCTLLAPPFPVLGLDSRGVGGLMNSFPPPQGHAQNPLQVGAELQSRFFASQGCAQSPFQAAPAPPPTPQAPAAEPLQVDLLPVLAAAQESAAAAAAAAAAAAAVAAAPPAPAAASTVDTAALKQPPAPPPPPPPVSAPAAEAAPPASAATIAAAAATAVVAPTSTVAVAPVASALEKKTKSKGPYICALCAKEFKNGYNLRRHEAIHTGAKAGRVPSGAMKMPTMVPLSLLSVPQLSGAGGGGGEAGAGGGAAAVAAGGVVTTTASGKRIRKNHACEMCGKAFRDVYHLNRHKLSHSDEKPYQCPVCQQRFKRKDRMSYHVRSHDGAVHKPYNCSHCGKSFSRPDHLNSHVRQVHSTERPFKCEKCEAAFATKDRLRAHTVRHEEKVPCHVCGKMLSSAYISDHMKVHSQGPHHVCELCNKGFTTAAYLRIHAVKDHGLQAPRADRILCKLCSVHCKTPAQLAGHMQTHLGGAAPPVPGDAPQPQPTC
# Flag-tagged MAZ (human) = target: T2, Flag-tagged MAZ (human) (UniProt P56270); assay: co-IP; Flag-tagged MAZ and its truncations expressed in cells; Flag antibody (ab18230), Western blot; source of EWSR1 not stated
# T2 sequence: T1 sequence
# [2] = target: T3, MYC-associated zinc finger protein (human (endogenous in IMR32 and SH-SY5Y)) (UniProt P56270); assay: co-IP; endogenous proteins of IMR32 and SH-SY5Y cells; antibodies to EWSR1 (sc-28327) or MAZ (ab85725), Western blot; also in cells stably transfected with circ-CUX1 (interaction increased) or sh-circ-CUX1 #1 (interaction decreased)
# T3 sequence: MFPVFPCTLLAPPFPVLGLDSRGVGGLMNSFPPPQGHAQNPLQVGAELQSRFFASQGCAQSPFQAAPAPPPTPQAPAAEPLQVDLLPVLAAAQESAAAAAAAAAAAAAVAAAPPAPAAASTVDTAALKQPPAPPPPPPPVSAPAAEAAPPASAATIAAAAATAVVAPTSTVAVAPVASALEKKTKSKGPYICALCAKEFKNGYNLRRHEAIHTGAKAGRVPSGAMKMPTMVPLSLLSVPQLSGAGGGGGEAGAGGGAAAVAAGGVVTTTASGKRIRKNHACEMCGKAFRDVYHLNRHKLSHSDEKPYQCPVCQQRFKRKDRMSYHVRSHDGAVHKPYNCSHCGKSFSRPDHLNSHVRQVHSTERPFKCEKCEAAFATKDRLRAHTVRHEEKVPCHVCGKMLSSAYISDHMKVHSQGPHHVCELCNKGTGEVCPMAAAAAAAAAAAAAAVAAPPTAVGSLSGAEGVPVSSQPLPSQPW
# [3] = target: T3, MYC-associated zinc finger protein (human (endogenous in IMR32 and SH-SY5Y)); assay: co-IP; Myc-tagged EWSR1 and its truncations expressed in cells; Myc antibody (ab9106), Western blot; source of MAZ not stated
substance,measurement,setting,value
EWSR1 in BiFC vector pBiFC-VN173 (from UniProt Q01844 1-656),binding,[1],binds
EWS RNA-binding protein 1 (from UniProt Q01844 1-656),binding,Flag-tagged MAZ (human),binds
same,binding,[2],binds
Myc-tagged EWSR1 (from UniProt Q01844 1-656),binding,[3],binds
